The results in this text go back to article PMC7556866.

Results are given in words; binding and its absence hold for the method and conditions named. Some binding calls cover weakened binding; strength is not graded here.

The target of this experiment is T1, Full-length human GIRK1 (human) (UniProt P48549).
T1 sequence: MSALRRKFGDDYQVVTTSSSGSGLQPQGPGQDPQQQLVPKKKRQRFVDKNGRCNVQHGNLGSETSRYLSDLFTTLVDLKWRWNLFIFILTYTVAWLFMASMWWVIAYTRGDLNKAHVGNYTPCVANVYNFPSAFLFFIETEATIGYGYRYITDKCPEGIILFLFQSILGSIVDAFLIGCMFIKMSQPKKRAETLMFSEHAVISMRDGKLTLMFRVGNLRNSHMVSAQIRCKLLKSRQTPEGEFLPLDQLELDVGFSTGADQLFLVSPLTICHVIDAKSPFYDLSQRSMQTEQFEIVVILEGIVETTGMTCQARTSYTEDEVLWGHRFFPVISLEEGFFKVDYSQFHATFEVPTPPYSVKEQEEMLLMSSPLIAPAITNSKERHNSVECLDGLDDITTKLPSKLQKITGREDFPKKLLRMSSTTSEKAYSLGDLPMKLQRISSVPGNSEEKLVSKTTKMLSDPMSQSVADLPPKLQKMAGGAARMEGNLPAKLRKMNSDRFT
In words: cryo-EM structure; single particle analysis of GIRK1/4 co-expressed and co-purified by tandem affinity (Talon, then 1D4 resin), DDM/CHS, 0.5 mM C8-PIP2, C2 symmetry; extended (7.9 Å) and docked (4.6 Å) maps; both purified.

B1: Full-length human GIRK4 (protein, UniProt P48544 1-419)
chain: MAGDSRNAMNQDMEIGVTPWDPKKIPKQARDYVPIATDRTRLLAEGKKPRQRYMEKSGKCNVHHGNVQETYRYLSDLFTTLVDLKWRFNLLVFTMVYTVTWLFFGFIWWLIAYIRGDLDHVGDQEWIPCVENLSGFVSAFLFSIETETTIGYGFRVITEKCPEGIILLLVQAILGSIVNAFMVGCMFVKISQPKKRAETLMFSNNAVISMRDEKLCLMFRVGDLRNSHIVEASIRAKLIKSRQTKEGEFIPLNQTDINVGFDTGDDRLFLVSPLIISHEINQKSPFWEMSQAQLHQEEFEVVVILEGMVEATGMTCQARSSYMDTEVLWGHRFTPVLTLEKGFYEVDYNTFHDTYETNTPSCCAKELAEMKREGRLLQYLPSPPLLGGCAEAGLDAEAEQNEEDEPKGLGGSREARGSV
B1: the binding entry is reported as “binds”.
